Results: the supplement of paper PMC4840960
The list shows a part of the results. Baselines shift from plate to plate; read single values as rough.

Tested on: E18 rat cortical neuron-glia co-culture
Test: total nuclei (DAPI) / Olig2+ nuclei (ratio); higher = more depletion of OPC/OL lineage cells
Conditions: 1 µM; treatment time: 8 days (DIV5-DIV13)
Description: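 Primary E18 rat cortical co-cultures (neurons, astrocytes, OPC/OLs) in 96-well plates. NIH Clinical Collection compounds were added on DIV5 in myelination medium at 5 and 1 µM for 8 days, then cells were fixed on DIV13 and stained for MBP, Olig2 and DAPI. Myelination (contiguous aligned MBP fiber length per Olig2+ nucleus) was normalised to plate controls (0.1% DMSO = 0, 1 µM DAPT = 100) as % of DAPT. Each value is from duplicate wells with 4 image fields each. Fiber length/MBP is the fiber score divided by the MBP differentiation score; DAPI/Olig2 is the ratio of total to Olig2+ nuclei.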

Row | Structure (SMILES) | total nuclei
1 | CCC(=O)NS(=O)(=O)c1ccc(-c2c(-c3ccccc3)noc2C)cc1 [Parecoxib] | 3.6
2 | COC(=O)Nc1nc2cc(C(=O)c3ccc(F)cc3)ccc2[nH]1 [Flubendazole] | 30.9
3 | O=c1[nH]cc(F)c(=O)[nH]1 [5-Fluorouracil] | 26.3
4 | CC(=O)O[C@@]12CO[C@@H]1C[C@H](O)[C@@]1(C)C(=O)[C@H](O)C3=C(C)[C@@H](OC(=O)[C@H](O)[C@@H](NC(=O)OC(C)(C)C)c4ccccc4)C[C@@](O)([C@@H](OC(=O)c4ccccc4)[C@H]21)C3(C)C [Docetaxel] | 37.3
5 | COc1ccc([C@@H]2Sc3ccccc3N(CCN(C)C)C(=O)[C@@H]2OC(C)=O)cc1 [Diltiazem] | 2.85
6 | CC(C)Oc1ccc2c(=O)c(-c3ccccc3)coc2c1 [Ipriflavone] | 2.98
7 | CC(=O)[C@H]1CC[C@H]2[C@@H]3CCC4=CC(=O)CC[C@]4(C)[C@H]3CC[C@]12C [Progesterone] | 3.27
8 | CN1CCN(C2=Nc3ccccc3Oc3ccc(Cl)cc32)CC1 [Loxapine] | 3.2
9 | COc1ccc2cc(CCC(C)=O)ccc2c1 [Nabumetone] | 3
10 | CC(C)C(=O)Nc1ccc([N+](=O)[O-])c(C(F)(F)F)c1 [Flutamide] | 4.18
11 | CC(c1cc2ccccc2s1)N(O)C(N)=O (stereo not given) [Zileuton] | 4.39
12 | CCC(C)n1ncn(-c2ccc(N3CCN(c4ccc(OCC5COC(Cn6cncn6)(c6ccc(Cl)cc6Cl)O5)cc4)CC3)cc2)c1=O (stereo not given) [Itraconazole] | 11.2
13 | CC(C)(S)[C@@H](N)C(=O)O [Penicillamine] | 4.11
14 | COc1cc2nc(N(C)CCCNC(=O)C3CCCO3)nc(N)c2cc1OC (stereo not given) [Alfuzosin] | 4.3
15 | CN(C)CCN(Cc1ccccc1)c1ccccn1 [Tripelennamine] | 4.85
16 | Clc1ccc2c(c1)C(N1CCNCC1)=Nc1ccccc1O2 [Amoxapine] | 2.78
17 | O=c1c(O[C@@H]2O[C@H](CO)[C@H](O)[C@H](O)[C@H]2O)c(-c2ccc(O)c(O)c2)oc2cc(O)cc(O)c12 [Hyperoside] | 7.55
18 | NC(=O)c1ncn([C@@H]2O[C@H](CO)[C@@H](O)[C@H]2O)n1 [Ribavirin] | 4.06
19 | CN/C(=N\CCSCc1nc[nH]c1C)NC#N [Cimetidine] | 3.69
20 | CN(CCOc1ccc(NS(C)(=O)=O)cc1)CCc1ccc(NS(C)(=O)=O)cc1 [Dofetilide] | 2.66

Same assay, conditions: 5 µM; treatment time: 8 days (DIV5-DIV13)

Row | Structure (SMILES) | total nuclei
21 | CCC(=O)NS(=O)(=O)c1ccc(-c2c(-c3ccccc3)noc2C)cc1 [Parecoxib] | 4.2
22 | COC(=O)Nc1nc2cc(C(=O)c3ccc(F)cc3)ccc2[nH]1 [Flubendazole] | > 40
23 | O=c1[nH]cc(F)c(=O)[nH]1 [5-Fluorouracil] | > 40
24 | CC(=O)O[C@@]12CO[C@@H]1C[C@H](O)[C@@]1(C)C(=O)[C@H](O)C3=C(C)[C@@H](OC(=O)[C@H](O)[C@@H](NC(=O)OC(C)(C)C)c4ccccc4)C[C@@](O)([C@@H](OC(=O)c4ccccc4)[C@H]21)C3(C)C [Docetaxel] | 38.1
25 | COc1ccc([C@@H]2Sc3ccccc3N(CCN(C)C)C(=O)[C@@H]2OC(C)=O)cc1 [Diltiazem] | 3.1
26 | CC(C)Oc1ccc2c(=O)c(-c3ccccc3)coc2c1 [Ipriflavone] | 3
27 | CC(=O)[C@H]1CC[C@H]2[C@@H]3CCC4=CC(=O)CC[C@]4(C)[C@H]3CC[C@]12C [Progesterone] | 3.6
28 | CN1CCN(C2=Nc3ccccc3Oc3ccc(Cl)cc32)CC1 [Loxapine] | 3.3
29 | COc1ccc2cc(CCC(C)=O)ccc2c1 [Nabumetone] | 2.9
30 | CC(C)C(=O)Nc1ccc([N+](=O)[O-])c(C(F)(F)F)c1 [Flutamide] | 4.3
31 | CC(c1cc2ccccc2s1)N(O)C(N)=O (stereo not given) [Zileuton] | 3.9
32 | CCC(C)n1ncn(-c2ccc(N3CCN(c4ccc(OCC5COC(Cn6cncn6)(c6ccc(Cl)cc6Cl)O5)cc4)CC3)cc2)c1=O (stereo not given) [Itraconazole] | 23.5
33 | CC(C)(S)[C@@H](N)C(=O)O [Penicillamine] | 4.3
34 | COc1cc2nc(N(C)CCCNC(=O)C3CCCO3)nc(N)c2cc1OC (stereo not given) [Alfuzosin] | 4.6
35 | CN(C)CCN(Cc1ccccc1)c1ccccn1 [Tripelennamine] | 4.6
36 | Clc1ccc2c(c1)C(N1CCNCC1)=Nc1ccccc1O2 [Amoxapine] | 3.8
37 | O=c1c(O[C@@H]2O[C@H](CO)[C@H](O)[C@H](O)[C@H]2O)c(-c2ccc(O)c(O)c2)oc2cc(O)cc(O)c12 [Hyperoside] | > 40
38 | NC(=O)c1ncn([C@@H]2O[C@H](CO)[C@@H](O)[C@H]2O)n1 [Ribavirin] | 4.2
39 | CN/C(=N\CCSCc1nc[nH]c1C)NC#N [Cimetidine] | 3.7
40 | CN(CCOc1ccc(NS(C)(=O)=O)cc1)CCc1ccc(NS(C)(=O)=O)cc1 [Dofetilide] | 2.8
